From patent US10172832B2, “Amide derivatives of N-urea substituted amino acids as formyl peptide receptor like-1 (FPRL-1) receptor modulators” (Allergan, Inc., priority 2011, dated 2019)
At least one compound was matched to its structure with a doubt left.

Biological target: T1, FPRL-1 (Homo sapiens, UniProt P25090)
T1 construct: expressed in transfected cells
T1 sequence (P25090 1-351): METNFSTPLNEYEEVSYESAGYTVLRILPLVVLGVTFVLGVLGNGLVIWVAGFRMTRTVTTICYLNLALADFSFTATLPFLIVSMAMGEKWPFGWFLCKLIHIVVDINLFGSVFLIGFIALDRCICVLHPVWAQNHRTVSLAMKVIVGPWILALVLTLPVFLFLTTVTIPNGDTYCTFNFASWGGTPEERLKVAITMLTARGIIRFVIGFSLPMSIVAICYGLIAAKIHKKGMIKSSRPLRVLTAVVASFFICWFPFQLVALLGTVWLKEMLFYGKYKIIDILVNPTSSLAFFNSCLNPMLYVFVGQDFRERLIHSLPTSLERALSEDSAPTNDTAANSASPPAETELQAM
Test: compound-induced calcium activity on FLIPR Tetra in CHO-Gα16 cells stably expressing FPRL1
Assay type: cell-based
Settings: relative efficacy
Method: CHO-Gα16 cells stably expressing FPRL1 were cultured in (F12, 10% FBS, 1% PSA, 400 μg/ml geneticin and 50 μg/ml hygromycin) and HEK-Gqi5 cells stable expressing FPR1 were cultured in (DMEM high glucose, 10% FBS, 1% PSA, 400 μg/ml geneticin and 50 μg/ml hygromycin). In general, the day before the experiment, 18,000 cells/well were plated in a 384-well clear bottom poly-d-lysine coated plate. The following day the screening compound-induced calcium activity was assayed on the FLIPR^Tetra. The drug plates were prepared in 384-well microplates using the EP3 and the MultiPROBE robotic liquid handling systems. Compounds were tested at concentrations ranging from 0.61 to 10,000 nM. Results are expressed as EC50 (nM) and efficacy values.

## CC(C)C[C@H](NC(=O)Nc1ccc(Br)cc1)C(=O)NCC(C)(C)O [Compound 47, (2S)-2-{[(4-bromophenyl)carbamoyl]amino}-N-(2-hydroxy-2-methylpropyl)-4-methylpentanamide]
  FPRL-1 Ga16-CHO (Rel. eff.): (1.01)
